The supplement of paper PMC8728848
This is one part of the list.

Tests used:
Test in all cases: glycan array binding signal (z-score within array); higher = stronger binding
Settings in all cases: glycan notation: IUPAC condensed, linker removed
[1] = biological target: Gal(b1-3)GlcNAc(b1-2)Man(a1-3)[Gal(b1-3)GlcNAc(b1-2)Man(a1-6)]Man(b1-4)GlcNAc(b1-4)GlcNAc
In short: (§1)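 Glycan array data were curated from 3228 arrays in the Consortium for Functional Glycomics database and kept only where the protein sequence was available. Glycan names were converted to IUPAC-condensed notation, and columns mapping to the same glycan were averaged. The binding signal is a within-array Z-score, averaged across arrays of the same protein sequence at different concentrations or buffers and across linkers. Negative Z-scores can be read as non-binding.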

[2] = biological target: Gal(b1-3)GlcNAc(b1-2)Man(a1-3)[Gal(b1-3)GlcNAc(b1-2)Man(a1-6)]Man(b1-4)GlcNAc(b1-4)[Fuc(a1-6)]GlcNAc
In short: as §1

[3] = biological target: Gal(b1-3)GlcNAc(b1-2)Man(a1-3)[GlcNAc(b1-4)][Gal(b1-3)GlcNAc(b1-2)Man(a1-6)]Man(b1-4)GlcNAc(b1-4)GlcNAc
In short: as §1

[4] = biological target: Gal(b1-3)GlcNAc(b1-2)[Gal(b1-3)GlcNAc(b1-6)]Man(a1-6)[Gal(b1-3)GlcNAc(b1-2)Man(a1-3)]Man(b1-4)GlcNAc(b1-4)GlcNAc
In short: as §1

[5] = biological target: Gal(b1-3)GlcNAc(b1-3)Gal(b1-3)GlcNAc
In short: as §1

[6] = biological target: Gal(b1-3)GlcNAc(b1-3)Gal(b1-4)Glc
In short: as §1

[7] = biological target: Gal(b1-3)GlcNAc(b1-3)Gal(b1-4)GlcNAc
In short: as §1

[8] = biological target: Gal(b1-3)GlcNAc(b1-3)Gal(b1-4)GlcNAc(b1-2)Man(a1-3)[Gal(b1-3)GlcNAc(b1-3)Gal(b1-4)GlcNAc(b1-2)Man(a1-6)]Man(b1-4)GlcNAc(b1-4)GlcNAc
In short: as §1

[9] = biological target: Gal(b1-3)GlcNAc(b1-3)Gal(b1-4)GlcNAc(b1-2)[Gal(b1-3)GlcNAc(b1-3)Gal(b1-4)GlcNAc(b1-6)]Man(a1-6)[Gal(b1-3)GlcNAc(b1-3)Gal(b1-4)GlcNAc(b1-2)Man(a1-3)]Man(b1-4)GlcNAc(b1-4)[Fuc(a1-6)]GlcNAc
In short: as §1

[10] = biological target: Gal(b1-3)GlcNAc(b1-3)Gal(b1-4)GlcNAc(b1-3)Gal(b1-4)GlcNAc(b1-2)[Gal(b1-3)GlcNAc(b1-3)Gal(b1-4)GlcNAc(b1-3)Gal(b1-4)GlcNAc(b1-6)]Man(a1-6)[Gal(b1-3)GlcNAc(b1-3)Gal(b1-4)GlcNAc(b1-3)Gal(b1-4)GlcNAc(b1-2)Man(a1-3)]Man(b1-4)GlcNAc(b1-4)[Fuc(a1-6)]GlcNAc
In short: as §1

[11] = biological target: Gal(b1-3)GlcNAc(b1-3)Gal(b1-4)GlcNAc(b1-6)[Gal(b1-3)GlcNAc(b1-3)]Gal(b1-4)Glc
In short: as §1

[12] = biological target: Gal(b1-3)GlcNAc(b1-3)Gal(b1-4)[Fuc(a1-3)]GlcNAc
In short: as §1

[13] = biological target: Gal(b1-3)GlcNAc(b1-3)Gal(b1-4)[Fuc(a1-3)]GlcNAc(b1-6)[Gal(b1-3)GlcNAc(b1-3)]Gal(b1-4)Glc
In short: as §1

[14] = biological target: Gal(b1-3)GlcNAc(b1-3)GalNAc
In short: as §1

[15] = biological target: Gal(b1-3)GlcNAc(b1-6)Gal(b1-4)GlcNAc
In short: as §1

[16] = biological target: Gal(b1-3)GlcNAc(b1-6)GalNAc
In short: as §1

[17] = biological target: Gal(b1-3)GlcNAc(b1-6)[Gal(b1-3)]GalNAc
In short: as §1

Gal(b1-3)GlcNAc6S = biological target: Gal(b1-3)GlcNAc6S
In short: as §1

[18] = biological target: Gal(b1-3)[Fuc(a1-4)]GlcNAc
In short: as §1

[19] = biological target: Gal(b1-3)[Fuc(a1-4)]GlcNAc(b1-2)Man
In short: as §1

[20] = biological target: Gal(b1-3)[Fuc(a1-4)]GlcNAc(b1-2)Man(a1-3)[Gal(b1-3)[Fuc(a1-4)]GlcNAc(b1-2)Man(a1-6)]Man(b1-4)GlcNAc(b1-4)[Fuc(a1-6)]GlcNAc
In short: as §1

[21] = biological target: Gal(b1-3)[Fuc(a1-4)]GlcNAc(b1-3)Gal(b1-3)[Fuc(a1-4)]GlcNAc
In short: as §1

[22] = biological target: Gal(b1-3)[Fuc(a1-4)]GlcNAc(b1-3)Gal(b1-4)[Fuc(a1-3)]GlcNAc
In short: as §1

[23] = biological target: Gal(b1-3)[Fuc(a1-4)]GlcNAc(b1-6)GalNAc
In short: as §1

[24] = biological target: Gal(b1-3)[GlcNAc(b1-6)]GalNAc
In short: as §1

[25] = biological target: Gal(b1-3)[Neu5Ac(a2-6)]GalNAc
In short: as §1

[26] = biological target: Gal(b1-3)[Neu5Ac(a2-6)]GlcNAc(b1-4)Gal(b1-4)Glc
In short: as §1

[27] = biological target: Gal(b1-3)[Neu5Ac(b2-6)]GalNAc
In short: as §1

Gal(b1-4)Gal = biological target: Gal(b1-4)Gal
In short: as §1

[28] = biological target: Gal(b1-4)GalNAc(a1-3)[Fuc(a1-2)]Gal(b1-4)GlcNAc
In short: as §1

[29] = biological target: Gal(b1-4)GalNAc(b1-3)[Fuc(a1-2)]Gal(b1-4)GlcNAc
In short: as §1

Gal(b1-4)Glc = biological target: Gal(b1-4)Glc
In short: as §1

Gal(b1-4)Glc6S = biological target: Gal(b1-4)Glc6S
In short: as §1

Gal(b1-4)GlcNAc = biological target: Gal(b1-4)GlcNAc
In short: as §1

[30] = biological target: Gal(b1-4)GlcNAc(a1-6)Gal(b1-4)GlcNAc
In short: as §1

Gal(b1-4)GlcNAc(b1-2)Man = biological target: Gal(b1-4)GlcNAc(b1-2)Man
In short: as §1

[31] = biological target: Gal(b1-4)GlcNAc(b1-2)Man(a1-3)Man(b1-4)GlcNAc(b1-4)GlcNAc
In short: as §1

[32] = biological target: Gal(b1-4)GlcNAc(b1-2)Man(a1-3)[Gal(b1-4)GlcNAc(b1-2)Man(a1-6)]Man(b1-4)GlcNAc(b1-4)GlcNAc
In short: as §1

[33] = biological target: Gal(b1-4)GlcNAc(b1-2)Man(a1-3)[Gal(b1-4)GlcNAc(b1-2)Man(a1-6)]Man(b1-4)GlcNAc(b1-4)[Fuc(a1-6)]GlcNAc
In short: as §1

[34] = biological target: Gal(b1-4)GlcNAc(b1-2)Man(a1-3)[Gal(b1-4)GlcNAc(b1-2)Man(a1-6)][Gal(b1-4)GlcNAc(b1-4)]Man(b1-4)GlcNAc(b1-4)[Fuc(a1-6)]GlcNAc
In short: as §1

[35] = biological target: Gal(b1-4)GlcNAc(b1-2)Man(a1-3)[Gal(b1-4)GlcNAc(b1-2)Man(a1-6)][GlcNAc(b1-4)]Man(b1-4)GlcNAc(b1-4)[Fuc(a1-6)]GlcNAc
In short: as §1

[36] = biological target: Gal(b1-4)GlcNAc(b1-2)Man(a1-3)[GlcNAc(b1-2)Man(a1-6)]Man(b1-4)GlcNAc(b1-4)GlcNAc
In short: as §1

[37] = biological target: Gal(b1-4)GlcNAc(b1-2)Man(a1-3)[GlcNAc(b1-4)][Gal(b1-4)GlcNAc(b1-2)Man(a1-6)]Man(b1-4)GlcNAc(b1-4)GlcNAc
In short: as §1

[38] = biological target: Gal(b1-4)GlcNAc(b1-2)Man(a1-3)[Man(a1-6)]Man(b1-4)GlcNAc(b1-4)GlcNAc
In short: as §1

[39] = biological target: Gal(b1-4)GlcNAc(b1-2)Man(a1-6)Man(b1-4)GlcNAc(b1-4)GlcNAc
In short: as §1

B1: Drgal1 (Danio rerio) (protein)
chain: MAGVLIQNMSFKVGQTLTITGVPKPDSTNFAINIGHSPEDIALHMNPRFDAHGDQCTIVCNSFQSGSWCEEHRDDNFPFIQDKEFQIKITFTNEEFLVTLPDGSEIHFPNRQGSEKYKYMYFEGEVRIQGVEIK
glycan array binding signal (z-score) [1]: 0.307
glycan array binding signal (z-score) [2]: 0.812
glycan array binding signal (z-score) [3]: 0.809
glycan array binding signal (z-score) [4]: -0.31
glycan array binding signal (z-score) [5]: -0.171
glycan array binding signal (z-score) [6]: 0.615
glycan array binding signal (z-score) [7]: -0.798
glycan array binding signal (z-score) [8]: 0.325
glycan array binding signal (z-score) [9]: 0.56
glycan array binding signal (z-score) [10]: 0.562
glycan array binding signal (z-score) [11]: 1.9
glycan array binding signal (z-score) [12]: 0.199
glycan array binding signal (z-score) [13]: 0.66
glycan array binding signal (z-score) [14]: 0.078
glycan array binding signal (z-score) [15]: 0.115
glycan array binding signal (z-score) [16]: -0.544
glycan array binding signal (z-score) [17]: -0.228
glycan array binding signal (z-score) (Gal(b1-3)GlcNAc6S): -0.268
glycan array binding signal (z-score) [18]: -0.253
glycan array binding signal (z-score) [19]: 0.89
glycan array binding signal (z-score) [20]: 0.201
glycan array binding signal (z-score) [21]: -0.645
glycan array binding signal (z-score) [22]: 0.77
glycan array binding signal (z-score) [23]: -0.443
glycan array binding signal (z-score) [24]: 0.255
glycan array binding signal (z-score) [25]: -0.745
glycan array binding signal (z-score) [26]: -0.395
glycan array binding signal (z-score) [27]: -0.043
glycan array binding signal (z-score) (Gal(b1-4)Gal): -0.066
glycan array binding signal (z-score) [28]: 0.068
glycan array binding signal (z-score) [29]: -0.588
glycan array binding signal (z-score) (Gal(b1-4)Glc): -0.435
glycan array binding signal (z-score) (Gal(b1-4)Glc6S): -0.192
glycan array binding signal (z-score) (Gal(b1-4)GlcNAc): -0.448
glycan array binding signal (z-score) [30]: 0.244
glycan array binding signal (z-score) (Gal(b1-4)GlcNAc(b1-2)Man): 0.071
glycan array binding signal (z-score) [31]: 0.231
glycan array binding signal (z-score) [32]: 0.021
glycan array binding signal (z-score) [33]: 0.385
glycan array binding signal (z-score) [34]: -0.219
glycan array binding signal (z-score) [35]: -0.087
glycan array binding signal (z-score) [36]: -0.092
glycan array binding signal (z-score) [37]: -0.088
glycan array binding signal (z-score) [38]: 0.544
glycan array binding signal (z-score) [39]: -0.388
